Measurements reported in PubChem BioAssay AID1259308 (NCATS, 2017).

Assay: 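Knock-downs that increase output of a recombinant reporter protein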 (primary screen)
System: human HEK293 embryonic kidney cells stably expressing firefly luciferase (HEK-CMV-Luc2-Hygro)
Reagent: single siRNA against human genes, 0.8 pmol siRNA per well
Timing: 72 h
Measured: 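Reporter luminescence and viable-cell signal on separate replicate plates, given as percent of non-targeting control and median/MAD z-scores, plus per-cell luciferase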
Direction: total luciferase, z-score: higher = more reporter protein produced
Call rule: 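Active when the median/MAD z-score for overall luciferase is greater than 3; a gene was taken forward for validation with new siRNAs if at least two of its three siRNAs passed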
Calls: active = raised luciferase; inactive = no rise
This is one part, drawn at random, of about 59,000 deposited reagents. Over the whole deposit, about 1,510 (2.6%) were called active. 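Calls use total luciferase alone and ignore viability, so some active siRNAs may act by altering cell number.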 Reagents against one gene are numbered here. Not all columns of the deposit are shown. No sequences are given here.

With knock-down of WNT8A #1, the screen gave total luciferase, z-score -0.112; inactive.
Silencing of WNT8A #2 resulted in: total luciferase, z-score 1.01; inactive.
Against WNT8A #3, the entry reads total luciferase, z-score -2.17; inactive.
EIF4E #1 scored total luciferase, z-score 0.406; inactive.
EIF4E #2 scored total luciferase, z-score 1.92; inactive.
Depletion of EIF4E #3 gave: total luciferase, z-score -0.684; inactive.
With knock-down of LST1 #1, the screen gave total luciferase, z-score -0.703; inactive.
After knock-down of LST1 #2 the results were total luciferase, z-score 0.152; inactive.
For LST1 #3, the values are total luciferase, z-score -0.0657; inactive.
After knock-down of CNN3 #1, the record shows total luciferase, z-score 0.382; inactive.
Silencing of CNN3 #2 came out at: total luciferase, z-score -0.0105; inactive.
After knock-down of CNN3 #3, the record shows total luciferase, z-score 0.762; inactive.
For GPRC6A #1 the deposit lists total luciferase, z-score 0.0806; inactive.
Silencing of GPRC6A #2 came out at: total luciferase, z-score 0.127; inactive.
GPRC6A #3 showed total luciferase, z-score 0.0708; inactive.
Silencing of TLDC2 #1 gave: total luciferase, z-score 0.376; inactive.
With knock-down of TLDC2 #2, the screen gave total luciferase, z-score -1.12; inactive.
Against TLDC2 #3, the entry reads total luciferase, z-score 0.65; inactive.
CBY2 #1 gave total luciferase, z-score -1.12; inactive.
Silencing of CBY2 #2 resulted in: total luciferase, z-score 1.08; inactive.
CBY2 #3 showed total luciferase, z-score -1.76; inactive.
Against RNF26 #1, the values are total luciferase, z-score -0.74; inactive.
RNF26 #2 gave total luciferase, z-score -0.159; inactive.
With knock-down of RNF26 #3, the screen gave total luciferase, z-score -1.85; inactive.
LOC100505502 #1 showed total luciferase, z-score 1.22; inactive.
After knock-down of LOC100505502 #2, the screen gave total luciferase, z-score -1.01; inactive.
With knock-down of LOC100505502 #3 the results were total luciferase, z-score -0.422; inactive.
PURG #1 gave total luciferase, z-score 1.06; inactive.
Silencing of PURG #2 gave: total luciferase, z-score 0.239; inactive.
Against PURG #3 the deposit lists total luciferase, z-score -0.912; inactive.
With knock-down of UBXN2B #1, the screen gave total luciferase, z-score 0.592; inactive.
Silencing of UBXN2B #2 came out at: total luciferase, z-score 0.692; inactive.
Against UBXN2B #3 the deposit lists total luciferase, z-score -0.576; inactive.
Depletion of PHETA2 #1 came out at: total luciferase, z-score -0.0722; inactive.
Against PHETA2 #2 the deposit lists total luciferase, z-score 0.257; inactive.
PHETA2 #3 scored total luciferase, z-score 0.849; inactive.
Knock-down of SLC44A1 #1 came out at: total luciferase, z-score 0.0821; inactive.
Silencing of SLC44A1 #2 came out at: total luciferase, z-score -1.05; inactive.
For SLC44A1 #3, the entry reads total luciferase, z-score -0.424; inactive.
Silencing of RNF214 #1 resulted in: total luciferase, z-score 1.3; inactive.
With knock-down of RNF214 #2 the results were total luciferase, z-score -0.167; inactive.
RNF214 #3 showed total luciferase, z-score -1.33; inactive.
